In paper PMC5201015:
These are yes or no findings as the source states them, for the method shown. In cells and extracts the contact can be indirect. Here binding means that the protein was enriched with, or labelled near, the bait; the list need not be complete. Sequences can lack the tags named with a protein.

The chains behind the UniProt entries cited, without tags or fusion partners.
UniProt Q13547: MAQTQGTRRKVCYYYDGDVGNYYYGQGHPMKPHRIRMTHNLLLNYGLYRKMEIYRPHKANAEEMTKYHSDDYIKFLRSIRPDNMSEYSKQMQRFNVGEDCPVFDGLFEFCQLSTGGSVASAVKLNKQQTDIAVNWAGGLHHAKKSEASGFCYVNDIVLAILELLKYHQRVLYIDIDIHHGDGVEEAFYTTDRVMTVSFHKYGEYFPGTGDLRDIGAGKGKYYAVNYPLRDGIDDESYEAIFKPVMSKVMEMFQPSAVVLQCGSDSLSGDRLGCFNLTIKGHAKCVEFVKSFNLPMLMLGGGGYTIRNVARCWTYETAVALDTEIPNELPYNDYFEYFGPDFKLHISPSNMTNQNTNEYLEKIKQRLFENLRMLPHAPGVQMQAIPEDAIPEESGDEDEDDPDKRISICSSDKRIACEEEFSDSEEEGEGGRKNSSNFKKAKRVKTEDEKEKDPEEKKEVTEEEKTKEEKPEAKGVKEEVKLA
UniProt P18754: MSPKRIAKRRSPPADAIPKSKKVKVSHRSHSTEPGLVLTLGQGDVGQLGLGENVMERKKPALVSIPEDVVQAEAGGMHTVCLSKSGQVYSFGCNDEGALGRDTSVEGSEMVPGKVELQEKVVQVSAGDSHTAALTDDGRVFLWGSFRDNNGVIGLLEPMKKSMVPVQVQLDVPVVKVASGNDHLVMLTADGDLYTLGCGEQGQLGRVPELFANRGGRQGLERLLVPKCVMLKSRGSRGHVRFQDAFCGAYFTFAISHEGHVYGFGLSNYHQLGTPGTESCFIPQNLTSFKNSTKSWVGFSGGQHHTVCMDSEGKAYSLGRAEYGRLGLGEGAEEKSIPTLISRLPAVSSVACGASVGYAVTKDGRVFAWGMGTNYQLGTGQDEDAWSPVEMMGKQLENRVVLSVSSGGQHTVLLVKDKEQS
UniProt P50990: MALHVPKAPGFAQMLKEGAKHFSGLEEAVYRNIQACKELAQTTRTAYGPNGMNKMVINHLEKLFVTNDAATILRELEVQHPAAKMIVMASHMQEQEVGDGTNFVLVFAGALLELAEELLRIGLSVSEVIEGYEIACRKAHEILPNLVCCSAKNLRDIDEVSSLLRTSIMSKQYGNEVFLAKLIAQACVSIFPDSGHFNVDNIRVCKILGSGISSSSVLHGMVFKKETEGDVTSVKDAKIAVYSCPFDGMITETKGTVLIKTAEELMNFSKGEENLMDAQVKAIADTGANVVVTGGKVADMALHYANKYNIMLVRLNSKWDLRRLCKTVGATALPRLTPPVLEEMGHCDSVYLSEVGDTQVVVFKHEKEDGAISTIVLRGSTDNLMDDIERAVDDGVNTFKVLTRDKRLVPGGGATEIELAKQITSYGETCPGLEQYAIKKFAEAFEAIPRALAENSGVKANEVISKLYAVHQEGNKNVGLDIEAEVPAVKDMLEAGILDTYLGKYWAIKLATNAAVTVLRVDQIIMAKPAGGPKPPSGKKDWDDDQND
UniProt P53618: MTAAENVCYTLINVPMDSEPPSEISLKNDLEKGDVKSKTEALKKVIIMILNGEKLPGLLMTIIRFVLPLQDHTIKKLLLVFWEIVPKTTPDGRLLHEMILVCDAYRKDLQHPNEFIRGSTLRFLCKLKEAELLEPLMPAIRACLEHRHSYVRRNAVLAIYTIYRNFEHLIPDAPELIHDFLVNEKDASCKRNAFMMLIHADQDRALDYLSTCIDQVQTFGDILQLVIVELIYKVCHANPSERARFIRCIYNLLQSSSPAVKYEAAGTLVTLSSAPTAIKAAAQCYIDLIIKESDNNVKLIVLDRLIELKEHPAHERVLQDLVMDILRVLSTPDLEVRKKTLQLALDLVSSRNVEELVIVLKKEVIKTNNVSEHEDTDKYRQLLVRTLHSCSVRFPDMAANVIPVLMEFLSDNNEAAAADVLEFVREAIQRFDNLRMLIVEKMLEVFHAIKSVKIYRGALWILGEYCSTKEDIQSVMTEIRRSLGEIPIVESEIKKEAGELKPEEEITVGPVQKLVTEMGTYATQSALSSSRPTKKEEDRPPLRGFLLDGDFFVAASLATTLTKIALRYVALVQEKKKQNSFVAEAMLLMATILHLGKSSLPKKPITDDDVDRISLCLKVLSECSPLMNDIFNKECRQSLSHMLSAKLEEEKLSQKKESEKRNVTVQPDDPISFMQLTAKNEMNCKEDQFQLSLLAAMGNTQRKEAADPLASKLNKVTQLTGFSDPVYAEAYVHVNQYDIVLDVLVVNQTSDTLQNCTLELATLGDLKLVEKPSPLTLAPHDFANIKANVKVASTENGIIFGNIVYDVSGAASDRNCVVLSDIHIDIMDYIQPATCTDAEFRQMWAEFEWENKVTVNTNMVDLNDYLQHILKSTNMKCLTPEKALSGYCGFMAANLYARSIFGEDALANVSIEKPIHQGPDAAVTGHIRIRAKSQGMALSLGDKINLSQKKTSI
UniProt Q15003: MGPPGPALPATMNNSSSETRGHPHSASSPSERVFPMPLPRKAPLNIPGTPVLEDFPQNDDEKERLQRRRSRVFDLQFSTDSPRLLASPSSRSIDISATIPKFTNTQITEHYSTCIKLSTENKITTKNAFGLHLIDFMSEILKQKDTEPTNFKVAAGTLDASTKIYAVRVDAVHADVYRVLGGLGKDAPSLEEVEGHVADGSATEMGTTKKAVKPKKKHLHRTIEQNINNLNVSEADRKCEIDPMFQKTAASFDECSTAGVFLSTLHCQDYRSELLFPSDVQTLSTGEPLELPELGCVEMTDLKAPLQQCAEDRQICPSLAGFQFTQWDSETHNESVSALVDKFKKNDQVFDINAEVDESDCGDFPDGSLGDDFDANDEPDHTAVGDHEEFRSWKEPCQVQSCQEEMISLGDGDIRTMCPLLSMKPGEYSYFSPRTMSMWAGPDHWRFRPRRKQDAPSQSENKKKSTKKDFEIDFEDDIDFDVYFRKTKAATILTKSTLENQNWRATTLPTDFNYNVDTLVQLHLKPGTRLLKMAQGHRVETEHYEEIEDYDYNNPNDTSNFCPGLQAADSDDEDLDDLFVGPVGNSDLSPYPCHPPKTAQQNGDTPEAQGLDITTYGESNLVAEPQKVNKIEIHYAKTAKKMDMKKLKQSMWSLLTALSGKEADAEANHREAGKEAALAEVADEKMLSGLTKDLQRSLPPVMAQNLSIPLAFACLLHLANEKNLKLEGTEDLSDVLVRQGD
UniProt Q14739: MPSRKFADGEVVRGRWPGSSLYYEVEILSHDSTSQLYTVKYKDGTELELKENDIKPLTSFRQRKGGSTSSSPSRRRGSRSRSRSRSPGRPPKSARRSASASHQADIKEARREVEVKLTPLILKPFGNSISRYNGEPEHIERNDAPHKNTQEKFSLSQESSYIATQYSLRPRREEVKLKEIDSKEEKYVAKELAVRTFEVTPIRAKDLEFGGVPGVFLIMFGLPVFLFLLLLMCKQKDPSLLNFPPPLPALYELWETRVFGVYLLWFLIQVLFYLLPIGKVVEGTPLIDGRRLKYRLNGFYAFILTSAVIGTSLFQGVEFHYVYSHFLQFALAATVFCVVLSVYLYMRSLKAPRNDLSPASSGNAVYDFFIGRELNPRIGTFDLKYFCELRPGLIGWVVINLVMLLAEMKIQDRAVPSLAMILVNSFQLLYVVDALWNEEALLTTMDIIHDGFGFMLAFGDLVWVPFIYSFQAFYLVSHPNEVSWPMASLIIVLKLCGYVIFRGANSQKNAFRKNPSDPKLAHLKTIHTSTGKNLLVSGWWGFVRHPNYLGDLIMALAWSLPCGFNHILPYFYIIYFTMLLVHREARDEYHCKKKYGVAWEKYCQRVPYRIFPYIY
UniProt P68371: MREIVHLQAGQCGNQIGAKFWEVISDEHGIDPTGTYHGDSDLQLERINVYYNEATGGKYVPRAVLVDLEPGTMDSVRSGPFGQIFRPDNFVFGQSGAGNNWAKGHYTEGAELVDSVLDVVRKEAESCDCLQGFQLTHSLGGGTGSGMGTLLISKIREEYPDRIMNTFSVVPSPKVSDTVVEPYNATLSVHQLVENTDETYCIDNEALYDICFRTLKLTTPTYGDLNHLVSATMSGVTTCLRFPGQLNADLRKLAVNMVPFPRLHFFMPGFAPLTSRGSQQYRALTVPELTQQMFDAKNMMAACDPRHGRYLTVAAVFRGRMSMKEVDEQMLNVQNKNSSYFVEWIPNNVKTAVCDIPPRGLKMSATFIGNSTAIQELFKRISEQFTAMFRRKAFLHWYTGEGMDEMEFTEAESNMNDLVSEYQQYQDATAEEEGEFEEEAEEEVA

B1: SIRT2 (endogenous, found with ANKLE2–GFP) (enzyme, UniProt Q8IXJ6 1-389)
chain: MAEPDPSHPLETQAGKVQEAQDSDSDSEGGAAGGEADMDFLRNLFSQTLSLGSQKERLLDELTLEGVARYMQSERCRRVICLVGAGISTSAGIPDFRSPSTGLYDNLEKYHLPYPEAIFEISYFKKHPEPFFALAKELYPGQFKPTICHYFMRLLKDKGLLLRCYTQNIDTLERIAGLEQEDLVEAHGTFYTSHCVSASCRHEYPLSWMKEKIFSEVTPKCEDCQSLVKPDIVFFGESLPARFFSCMQSDFLKVDLLLVMGTSLQVQPFASLISKAPLSTPRLLINKEKAGQSDPFLGMIMGLGGGMDFDSKKAYRDVAWLGECDQGCLALAELLGWKKELEDLVRREHASIDAQSGAGVPNPSTSASPKKSPPPAKDEARTTEREKPQ
B2: barrier-to-autointegration factor (BAF), O75531 1-89 (protein)
chain: MTTSQKHRDFVAEPMGEKPVGSLAGIGEVLGKKLEERGFDKAYVVLGQFLVLKKDEDLFREWLKDTCGANAKQSRDCFGCLREWCDAFL
B3: coatomer complex protein COPG2 (endogenous prey of the screen) (protein, UniProt Q9UBF2 1-871)
chain: MIKKFDKKDEESGSGSNPFQHLEKSAVLQEARIFNETPINPRRCLHILTKILYLLNQGEHFGTTEATEAFFAMTRLFQSNDQTLRRMCYLTIKEMATISEDVIIVTSSLTKDMTGKEDVYRGPAIRALCRITDGTMLQAIERYMKQAIVDKVSSVSSSALVSSLHMMKISYDVVKRWINEAQEAASSDNIMVQYHALGVLYHLRKNDRLAVSKMLNKFTKSGLKSQFAYCMLIRIASRLLKETEDGHESPLFDFIESCLRNKHEMVIYEAASAIIHLPNCTARELAPAVSVLQLFCSSPKPALRYAAVRTLNKVAMKHPSAVTACNLDLENLITDSNRSIATLAITTLLKTGSESSVDRLMKQISSFVSEISDEFKVVVVQAISALCQKYPRKHSVMMTFLSNMLRDDGGFEYKRAIVDCIISIVEENPESKEAGLAHLCEFIEDCEHTVLATKILHLLGKEGPRTPVPSKYIRFIFNRVVLENEAVRAAAVSALAKFGAQNESLLPSILVLLQRCMMDTDDEVRDRATFYLNVLQQRQMALNATYIFNGLTVSVPGMEKALHQYTLEPSEKPFDMKSIPLAMAPVFEQKAEITLVATKPEKLAPSRQDIFQEQLAAIPEFLNIGPLFKSSEPVQLTEAETEYFVRCIKHMFTNHIVFQFDCTNTLNDQLLEKVTVQMEPSDSYEVLSCIPAPSLPYNQPGICYTLVRLPDDDPTAVAGSFSCTMKFTVRDCDPNTGVPDEDGYDDEYVLEDLEVTVSDHIQKVLKPNFAAAWEEVGDTFEKEETFALSSTKTLEEAVNNIITFLGMQPCERSDKVPENKNSHSLYLAGIFRGGYDLLVRSRLALADGVTMQVTVRSKERTPVDVILASVG
B4: kinetochore-associated protein SKAP (also known as KNSTRN) (endogenous prey of the screen) (protein, UniProt Q9Y448 1-316)
chain: MAAPEAPPLDRVFRTTWLSTECDSHPLPPSYRKFLFETQAADLAGGTTVAAGNLLNESEKDCGQDRRAPGVQPCRLVTMTSVVKTVYSLQPPSALSGGQPADTQTRATSKSLLPVRSKEVDVSKQLHSGGPENDVTKITKLRRENGQMKATDTATRRNVRKGYKPLSKQKSEEELKDKNQLLEAVNKQLHQKLTETQGELKDLTQKVELLEKFRDNCLAILESKGLDPALGSETLASRQESTTDHMDSMLLLETLQEELKLFNETAKKQMEELQALKVKLEMKEERVRFLEQQTLCNNQVNDLTTALKEMEQLLEM
B5: ankyrin and LEM domain-containing protein 2 (ANKLE2), endogenous (protein, UniProt Q86XL3 1-938)
chain: MLWPRLAAAEWAALAWELLGASVLLIAVRWLVRRLGPRPGGLGRSGTPVPPPSAAAAPASGEMTMDALLARLKLLNPDDLREEIVKAGLKCGPITSTTRFIFEKKLAQALLEQGGRLSSFYHHEAGVTALSQDPQRILKPAEGNPTDQAGFSEDRDFGYSVGLNPPEEEAVTSKTCSVPPSDTDTYRAGATASKEPPLYYGVCPVYEDVPARNERIYVYENKKEALQAVKMIKGSRFKAFSTREDAEKFARGICDYFPSPSKTSLPLSPVKTAPLFSNDRLKDGLCLSESETVNKERANSYKNPRTQDLTAKLRKAVEKGEEDTFSDLIWSNPRYLIGSGDNPTIVQEGCRYNVMHVAAKENQASICQLTLDVLENPDFMRLMYPDDDEAMLQKRIRYVVDLYLNTPDKMGYDTPLHFACKFGNADVVNVLSSHHLIVKNSRNKYDKTPEDVICERSKNKSVELKERIREYLKGHYYVPLLRAEETSSPVIGELWSPDQTAEASHVSRYGGSPRDPVLTLRAFAGPLSPAKAEDFRKLWKTPPREKAGFLHHVKKSDPERGFERVGRELAHELGYPWVEYWEFLGCFVDLSSQEGLQRLEEYLTQQEIGKKAQQETGEREASCRDKATTSGSNSISVRAFLDEDDMSLEEIKNRQNAARNNSPPTVGAFGHTRCSAFPLEQEADLIEAAEPGGPHSSRNGLCHPLNHSRTLAGKRPKAPRGEEAHLPPVSDLTVEFDKLNLQNIGRSVSKTPDESTKTKDQILTSRINAVERDLLEPSPADQLGNGHRRTESEMSARIAKMSLSPSSPRHEDQLEVTREPARRLFLFGEEPSKLDQDVLAALECADVDPHQFPAVHRWKSAVLCYSPSDRQSWPSPAVKGRFKSQLPDLSGPHSYSPGRNSVAGSNPAKPGLGSPGRYSPVHGSQLRRMARLAELAAL

Each molecule was assayed against T1, ANKLE2–GFP (human) (UniProt Q86XL3) (assay: affinity purification with mass spectrometry; ANKLE2–GFP as bait on GFP-Trap_M magnetic beads; only ANKLE2 overexpressed; interactors by mass spectrometry (Table S2)). Settings: not given.
T1 sequence: B5 chain

binding, binds:
B1

Target: T2, ANKLE2–GFP (human), Q86XL3
T2 chain: B5 chain
Assay: as above
Settings: remark: other sources report otherwise

binding, binds:
B2

What follows are molecules tested against T3, HA-STREP-tagged SIRT2 (Sirtuin 2) (UniProt Q8IXJ6) (assay: affinity purification with mass spectrometry + proximity labelling; STREP-HA tandem affinity purification of HA-STREP–SIRT2 and BioID of N- and C-terminal BirA–SIRT2 fusions in stable doxycycline-induced Flp-In T-REx 293 cells; eight samples (whole-cell lysates, cytoplasmic and chromatin fractions); hits ranked by a global score (SAINT probability >0.98, fold change >10)). Settings: not given.
T3 sequence: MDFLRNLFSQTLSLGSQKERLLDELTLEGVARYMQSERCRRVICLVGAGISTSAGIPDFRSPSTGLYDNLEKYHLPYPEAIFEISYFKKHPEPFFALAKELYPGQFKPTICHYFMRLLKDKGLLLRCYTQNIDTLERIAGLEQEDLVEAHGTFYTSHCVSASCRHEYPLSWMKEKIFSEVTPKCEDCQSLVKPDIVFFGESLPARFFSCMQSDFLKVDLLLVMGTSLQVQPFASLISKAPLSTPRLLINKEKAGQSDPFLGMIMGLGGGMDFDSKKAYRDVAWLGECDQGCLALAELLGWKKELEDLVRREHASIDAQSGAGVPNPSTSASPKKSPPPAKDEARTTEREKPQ

binding, binds:
HDAC1 (endogenous prey of the screen) (from UniProt Q13547 1-482) (enzyme)
RCC1 (endogenous prey of the screen) (from UniProt P18754 1-421)
T-complex protein 1 subunit θ (TCPQ) (from UniProt P50990 1-548)
coatomer complex protein COPB1 (endogenous prey of the screen) (from UniProt P53618 1-953)
condensin subunit CND2 (also known as NCAPH) (endogenous prey of the screen) (from UniProt Q15003 1-741)
lamin B receptor (LBR) (from UniProt Q14739 1-615)
tubulin (β-4B chain; TBB4B) (from UniProt P68371 1-445)

Target: T3, HA-STREP-tagged SIRT2 (Sirtuin 2)
Assay: as above
Settings: not given
Remark: another data set of the same source

binding, binds:
B3
B4
B5
